Measurements from PubChem BioAssay AID1665 (Sanford-Burnham Center for Chemical Genomics, 2009).
Some of the results follow. Some results for these compounds are left out of this collection, so the calls shown say nothing about other tests.

Test: beta-catenin nuclear localization change in HeLa – imaging, HeLa cells, immunofluorescence, high-content, primary screen (AID 1665)
Conditions: HeLa beta-catenin nuclear translocation, measured here: cell count, cytotoxicity flag, at 5 µM
In short: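 Signal – beta-catenin immunofluorescence imaging with DAPI · Test system – human HeLa cell line · Dosing – 5 µM primary single dose, 0.1% DMSO, 0.02–20 µM confirmation series · Measure – % activation, nuclear-to-cytoplasmic median beta-catenin signal ratio per cell · Incubation – 24 h compound exposure at 37°C, 5% CO2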

| Compound | cell count [cells] |
| --- | --- |
| COc1cccc(C(=O)NCC2(N3CCCCC3)CCCCC2)c1 | 1060 |
| COc1ccc(Br)c(C(=O)NCC2(N3CCCCC3)CCCCC2)c1 | 1220 |
| CN(C)c1cccc(C(=O)NCC2(N(C)C)CCCCC2)c1 | 1120 |
| O=C(NCC1(N2CCCCC2)CCCCC1)c1cc([N+](=O)[O-])ccc1Cl | 1040 |
| CCN(CC)CC(C)C(C)OC(=O)C(O)(c1ccccc1)c1ccccc1 (stereo not given) | 1320 |
| CC(C)N1C(=O)CC2(CCN(CCOC(=O)C(O)(c3ccccc3)c3ccccc3)CC2)C1=O | 1290 |
| Cc1ccccc1C(=O)NCC1(N2CCCCC2)CCCCC1 | 1140 |
| CN(C)C1CCCC1OC(=O)C(O)(c1ccccc1)c1ccccc1 (stereo not given) | 1060 |
| C=CCN1CCN(CCOC(=O)C(O)(c2ccccc2)c2ccccc2)CC1 | 996 |
| CCN1CCCC(OC(=O)C2(O)c3ccccc3C=Cc3ccccc32)C1 (stereo not given) | 619 |
